Measurements from “University of Dundee, Small-Polar-MMV Screening Library” (2021), ChEMBL document CHEMBL3988442.

Each number is a percent effect as filed.
The controls that fix the scale are not given in the record; negative values are as filed.
Compounds were drawn at random from those tested, without regard to their results.
Two or more numbers in one place are separate tests of the same structure; such repeats can differ widely.

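Viability assay of Plasmodium falciparum sporozoites; the read-out is not stated. The concentration is filed as 10 mM, unlikely as a test dose, so the dose is not known. The record gives no direction; compounds that gave an IC50 in retests scored well above the rest, so higher reads as lower viability. Strong results were mostly tested again. About 34,000 compounds were tested under these conditions; 0.84% (about 280) showed 50% or more at least once.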

- O=C(O)c1csc(S(=O)(=O)Nc2cccc(OC(F)F)c2)c1 : -22.69% and -28.07% and 16.91%
- Cc1cccc(C)c1Nc1noc2c1CN(C(=O)c1ccn(C)n1)CC2 : -1.861%
- Cc1cnn(CC2CCCCN2CCC(=O)Nc2cc(C)on2)c1 (stereo unspecified) : 14.8%
- CC(C)[C@H](NS(C)(=O)=O)C(=O)NCc1cc(-c2ccco2)nn1C : 2.286%
- O=C(NC1CCCCC1)NC1CCCc2c1cnn2CCO (stereo unspecified) : -11.63% and -7.35% and -4.902%
- COc1ccc(CCNC(=O)c2ccc(=O)n(C)c2)c(Cl)c1 : 8.391%
- [H][C@]12CC[C@]([H])(CN(C(=O)N(C)C)C1)N(C(=O)Cc1c(C)nc(C)[nH]c1=O)C2 : -4.152%
- CC(=O)Nc1nc(C(=O)N2CCCC(c3cc(C)[nH]n3)C2)cs1 (stereo unspecified) : 3.993%
- O=C(c1csc(-c2cnccn2)n1)N1CCCC1Cn1cccn1 (stereo unspecified) : -1.83%
- CC(=O)N1CCCC(c2ccc(C(N)=O)cn2)C1 (stereo unspecified) : -8.545%
- O=C1CCC(C(=O)NCc2nn(-c3ccccc3)c3c2CCC3)CN1 (stereo unspecified) : -3.865%
- O=C(O)C(F)(F)F.O=C(O)C(F)(F)F.O=C(O)C(F)(F)F.c1ccc(NCc2cn3c(n2)CN(Cc2cccnc2)CC3)nc1 : -10.51%
- CCOc1ncccc1NC(=O)N1CCCC(CNC(N)=O)C1 (stereo unspecified) : 7.775%
- Cc1cc(N2CCCCCC2)n2nc(C)c(C)c2n1 : -12.99%
- Cc1cnc(C(C)(C)NC(=O)NCc2cccnc2OC(C)C)s1 : 6.785%
- O=S(=O)(N1CCCC1)N1CC(c2ccnc(Nc3ccccn3)n2)C1 : 0.547%
- COc1ccc(CN2CCN(C(C)c3nc(C4CC4)no3)CC2)cc1 (stereo unspecified) : 8.696%
- Cc1ccccc1CC1(CO)CCCN(c2ncccc2C#N)C1 (stereo unspecified) : -3.176%
- CCOc1cccc(CNC2CCCN(Cc3noc(C)n3)C2)c1 (stereo unspecified) : 2.668%
- COc1ccc2cc(C(=O)N3CCCC3Cn3cc(C)cn3)[nH]c2c1 (stereo unspecified) : -1.066%
- Brc1ccc(NCCCOC2CCOCC2)nc1 : -15.43%
- Cc1cc(CCC(=O)N(C)C)nc(C2CCCCN2)n1.Cl.Cl (stereo unspecified) : 0%
- [H][C@@]12C[C@H](C(=O)N3CCOCC3)[C@@]([H])(CN(C(=O)Nc3ccccc3)C1)O2 : 14.3%
- CCc1nc(C)c(C(=O)NCCN2CCC(C)CC2)s1 : -10.84%
- Cc1nc(C)c(CN2CCC(N(C)Cc3nnc(C4CC4)o3)C2)s1 (stereo unspecified) : 1.398%
- Cc1cc(C)c(OCC(=O)NS(=O)(=O)c2cccnc2)c(C)c1 : 23.58%
- CCN1CCc2[nH]nc(C(=O)N3CCCC3C)c2C1.O=C(O)C(F)(F)F (stereo unspecified) : 5.304%
- Cc1cc(NC(=O)CN2CCCC2c2c(C)nn(C)c2Cl)on1 (stereo unspecified) : 9.763%
- c1ccc(-c2nnn3c2COC(CNCC2CCOCC2)C3)cc1 (stereo unspecified) : -15.8%
- Cc1noc(-c2ccnc(N3CCN(C4CCOCC4)CC3)c2)n1 : -0.6689%
- Cc1cc2c(=O)n3c(nc2s1)CCN(Cc1ccncc1)CC3 : 2.725%
- CCCC1c2cccn2CCN1C(=O)Cn1cnc2sc(C)cc2c1=O (stereo unspecified) : -1.837%
- CCc1nc(CNCCn2cc(C)cn2)no1 : 10.85%
- CCN1CCc2c(c(COC)nn2C)C1 : -5.475%
- Cc1nn(C)c(Oc2ccccc2)c1CNC1CCOc2ccccc21 (stereo unspecified) : -27.51% and -32.31%

Once more, the final 3:

CCc1nc(CNCCn2cc(C)cn2)no1 gave 10.85%.
CCN1CCc2c(c(COC)nn2C)C1 gave -5.475%.
Cc1nn(C)c(Oc2ccccc2)c1CNC1CCOc2ccccc21 (stereo unspecified) gave -27.51% and -32.31%.